Data from US20220307034A1.
These are yes or no findings as the source states them, for the method shown. Binding seen in cells or lysates may run through a third protein. Some binding calls cover weakened binding; strength is not graded here. Tags and fused reporters may be left off the sequences shown.

Chains of the proteins cited; added tags and fusions are not shown. Residues count along the entry.
UniProt P35579, residues 2-1960: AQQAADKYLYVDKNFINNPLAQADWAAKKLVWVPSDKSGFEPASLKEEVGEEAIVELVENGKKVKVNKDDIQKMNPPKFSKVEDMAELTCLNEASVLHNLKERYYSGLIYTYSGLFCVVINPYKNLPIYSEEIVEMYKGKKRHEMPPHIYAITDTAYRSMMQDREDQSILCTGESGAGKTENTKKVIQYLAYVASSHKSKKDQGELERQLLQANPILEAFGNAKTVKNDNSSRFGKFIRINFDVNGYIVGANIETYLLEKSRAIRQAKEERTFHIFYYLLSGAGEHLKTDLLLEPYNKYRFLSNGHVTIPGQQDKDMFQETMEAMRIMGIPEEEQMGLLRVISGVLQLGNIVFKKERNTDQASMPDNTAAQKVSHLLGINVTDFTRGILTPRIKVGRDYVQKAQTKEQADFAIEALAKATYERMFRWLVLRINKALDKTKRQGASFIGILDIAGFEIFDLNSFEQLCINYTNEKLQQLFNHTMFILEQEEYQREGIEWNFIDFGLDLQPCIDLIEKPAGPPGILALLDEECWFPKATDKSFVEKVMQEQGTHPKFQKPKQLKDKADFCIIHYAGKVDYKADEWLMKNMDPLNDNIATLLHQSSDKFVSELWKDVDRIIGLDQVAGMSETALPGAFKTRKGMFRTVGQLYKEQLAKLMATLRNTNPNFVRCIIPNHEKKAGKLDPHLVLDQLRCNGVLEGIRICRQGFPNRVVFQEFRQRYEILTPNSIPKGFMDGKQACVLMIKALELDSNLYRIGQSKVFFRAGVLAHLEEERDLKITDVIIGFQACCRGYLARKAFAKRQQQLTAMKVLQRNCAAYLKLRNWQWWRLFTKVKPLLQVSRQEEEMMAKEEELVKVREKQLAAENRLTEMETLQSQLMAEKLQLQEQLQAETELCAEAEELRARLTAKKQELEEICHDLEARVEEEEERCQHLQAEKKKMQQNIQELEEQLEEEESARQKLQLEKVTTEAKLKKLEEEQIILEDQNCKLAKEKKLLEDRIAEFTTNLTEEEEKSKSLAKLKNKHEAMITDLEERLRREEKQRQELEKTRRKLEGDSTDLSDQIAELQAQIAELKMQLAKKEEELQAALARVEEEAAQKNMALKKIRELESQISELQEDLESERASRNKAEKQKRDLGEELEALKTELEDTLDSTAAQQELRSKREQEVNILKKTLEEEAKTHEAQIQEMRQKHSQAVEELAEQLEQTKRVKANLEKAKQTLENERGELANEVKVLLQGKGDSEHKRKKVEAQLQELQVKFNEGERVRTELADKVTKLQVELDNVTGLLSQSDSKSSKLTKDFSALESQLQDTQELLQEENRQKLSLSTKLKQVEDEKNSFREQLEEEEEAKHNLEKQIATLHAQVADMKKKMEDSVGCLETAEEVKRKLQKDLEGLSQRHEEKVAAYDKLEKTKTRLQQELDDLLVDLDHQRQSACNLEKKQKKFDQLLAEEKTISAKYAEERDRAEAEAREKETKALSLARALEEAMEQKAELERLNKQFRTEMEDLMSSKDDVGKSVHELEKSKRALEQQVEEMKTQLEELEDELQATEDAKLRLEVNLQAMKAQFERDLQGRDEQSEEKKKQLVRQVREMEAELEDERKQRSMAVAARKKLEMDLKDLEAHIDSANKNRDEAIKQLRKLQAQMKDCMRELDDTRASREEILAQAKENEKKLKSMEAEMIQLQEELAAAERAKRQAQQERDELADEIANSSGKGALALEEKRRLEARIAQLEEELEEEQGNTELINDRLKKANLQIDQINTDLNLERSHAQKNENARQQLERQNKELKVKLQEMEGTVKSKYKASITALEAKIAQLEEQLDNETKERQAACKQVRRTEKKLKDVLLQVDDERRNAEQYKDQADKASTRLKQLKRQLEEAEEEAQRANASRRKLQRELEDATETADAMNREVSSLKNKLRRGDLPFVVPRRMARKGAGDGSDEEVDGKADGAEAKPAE

Legend:
[1] = biological target: myosin heavy-chain 9 (MYH9) protein (human) (UniProt P35579); experiment: Flag immunoprecipitation from HEK293T cells overexpressing Flag-APE2, LC-MS proteomics
[2] = biological target: myosin heavy-chain 9 (MYH9) protein (human) (UniProt P35579); experiment: Flag immunoprecipitation (pulldown) and LC-MS; heading of the results section
[3] = biological target: myosin heavy-chain 9 (MYH9) protein (human) (UniProt P35579); experiment: Flag immunoprecipitation (pulldown) and LC-MS

Measured: binding

B1: Flag-APE2 (3FLAG-tagged human apurinic/apyrimidinic endonuclease 2, from PMEV-3FLAG-hAPE2 plasmid, overexpressed in HEK293T cells) (enzyme, UniProt Q9UBZ4 1-518, looked up, not shown: small tags and cut ends)
chain: MLRVVSWNINGIRRPLQGVANQEPSNCAAVAVGRILDELDADIVCLQETKVTRDALTEPLAIVEGYNSYFSFSRNRSGYSGVATFCKDNATPVAAEEGLSGLFATQNGDVGCYGNMDEFTQEELRALDSEGRALLTQHKIRTWEGKEKTLTLINVYCPHADPGRPERLVFKMRFYRLLQIRAEALLAAGSHVIILGDLNTAHRPIDHWDAVNLECFEEDPGRKWMDSLLSNLGCQSASHVGPFIDSYRCFQPKQEGAFTCWSAVTGARHLNYGSRLDYVLGDRTLVIDTFQASFLLPEVMGSDHCPVGAVLSVSSVPAKQCPPLCTRFLPEFAGTQLKILRFLVPLEQSPVLEQSTLQHNNQTRVQTCQNKAQVRSTRPQPSQVGSSRGQKNLKSYFQPSPSCPQASPDIELPSLPLMSALMTPKTPEEKAVAKVVKGQAKTSEAKDEKELRTSFWKSVLAGPLRTPLCGGHREPCVMRTVKKPGPNLGRRFYMCARPRGPPTDPSSRCNFFLWSRPS
binds: all assays above
